Measurements from the supplement of paper PMC6078165.

Test system: MDAMB468
Assay: relative JC-1 red fluorescence (viability) vs pre-drug, coculture with fibroblast (fraction); higher = more viable cancer cells
Description: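 JC-1 labelled TNBC cells cocultured 1:1 (1,500 cells each) with CellTrace Violet stained primary or stromal fibroblasts in 384-well plates in FluoroBrite medium, treated with one of 42 anticancer drugs at 0.1, 1, 10 or 100 uM. JC-1 red fluorescence (mitochondrial integrity in cancer cells only) was read by plate reader every 8 h for 72 h. Values are normalised to each well's pre-drug value. The stock of one drug was tenfold lower, so its dose labels may be too high.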

Nc1ccn([C@@H]2O[C@H](CO)[C@@H](O)C2(F)F)c(=O)n1 [Gemcitabine]
relative JC-1 red fluorescence
Conditions | 8 h | 16 h | 24 h | 32 h | 40 h | 48 h | 56 h | 64 h | 72 h
10 µM, coculture fibroblast: C12385 | 0.8934 | 0.7833 | 0.746 | 0.673 | 0.613 | 0.576 | 0.52 | 0.473 | 0.449
10 µM, coculture fibroblast: H6013 | 0.865 | 0.8342 | 0.7937 | 0.772 | 0.739 | 0.735 | 0.687 | 0.686 | 0.619
10 µM, coculture fibroblast: H6019 | 0.806 | 0.75 | 0.68 | 0.572 | 0.487 | 0.449 | 0.399 | 0.375 | 0.36
10 µM, coculture fibroblast: H6076 | 0.925 | 0.951 | 0.841 | 0.7974 | 0.6956 | 0.6396 | 0.542 | 0.502 | 0.533
10 µM, coculture fibroblast: H6231 | 0.839 | 0.912 | 0.8286 | 0.81 | 0.7371 | 0.6956 | 0.617 | 0.577 | 0.555
10 µM, coculture fibroblast: HADF | 0.8849 | 0.808 | 0.753 | 0.722 | 0.636 | 0.604 | 0.523 | 0.5 | 0.425
10 µM, coculture fibroblast: HCFa | 0.855 | 0.82013 | 0.75 | 0.697 | 0.62 | 0.61 | 0.542 | 0.497 | 0.43
10 µM, coculture fibroblast: HCPF | 0.89 | 0.9694 | 0.905 | 0.887 | 0.821 | 0.777 | 0.696 | 0.67 | 0.632
10 µM, coculture fibroblast: HHSteC | 0.8674 | 0.8128 | 0.7564 | 0.701 | 0.652 | 0.651 | 0.573 | 0.544 | 0.481
10 µM, coculture fibroblast: HMF | 0.84 | 0.816 | 0.904 | 0.847 | 0.782 | 0.748 | 0.667 | 0.6159 | 0.561
10 µM, coculture fibroblast: HPFa | 0.913 | 0.853 | 0.829 | 0.741 | 0.677 | 0.672 | 0.606 | 0.574 | 0.501
10 µM, coculture fibroblast: HUF | 0.942 | 0.8378 | 0.7876 | 0.714 | 0.66 | 0.629 | 0.569 | 0.552 | 0.535
10 µM, coculture fibroblast: Hs5 | 0.82 | 0.969 | 0.887 | 0.835 | 0.744 | 0.684 | 0.613 | 0.561 | 0.573
10 µM, coculture fibroblast: Hs27A | 0.852 | 0.8087 | 0.759 | 0.7521 | 0.694 | 0.682 | 0.627 | 0.609 | 0.559
10 µM, coculture fibroblast: Hs343T | 0.889 | 0.9662 | 0.881 | 0.841 | 0.746 | 0.709 | 0.631 | 0.592 | 0.528
10 µM, coculture fibroblast: WS1 | 0.856 | 0.763 | 0.707 | 0.64 | 0.587 | 0.555 | 0.502 | 0.469 | 0.459
100 µM, coculture fibroblast: C12385 | 0.894 | 0.828 | 0.792 | 0.723 | 0.668 | 0.638 | 0.562 | 0.523 | 0.5
100 µM, coculture fibroblast: H6013 | 0.867 | 0.809 | 0.762 | 0.729 | 0.687 | 0.686 | 0.646 | 0.637 | 0.57
100 µM, coculture fibroblast: H6019 | 0.841 | 0.758 | 0.705 | 0.596 | 0.534 | 0.498 | 0.44 | 0.426 | 0.423
100 µM, coculture fibroblast: H6076 | 0.937 | 0.954 | 0.867 | 0.82 | 0.696 | 0.624 | 0.545 | 0.507 | 0.552
100 µM, coculture fibroblast: H6231 | 0.858 | 0.939 | 0.871 | 0.871 | 0.79 | 0.762 | 0.711 | 0.68 | 0.665
100 µM, coculture fibroblast: HADF | 0.8941 | 0.826 | 0.7738 | 0.754 | 0.698 | 0.696 | 0.6335 | 0.609 | 0.53
100 µM, coculture fibroblast: HCFa | 0.873 | 0.821 | 0.761 | 0.73 | 0.661 | 0.641 | 0.568 | 0.53 | 0.46
100 µM, coculture fibroblast: HCPF | 0.873 | 0.9337 | 0.9079 | 0.8873 | 0.7929 | 0.756 | 0.679 | 0.653 | 0.632
100 µM, coculture fibroblast: HHSteC | 0.918 | 0.827 | 0.759 | 0.709 | 0.657 | 0.65 | 0.576 | 0.54619 | 0.4843
100 µM, coculture fibroblast: HMF | 0.88 | 0.946 | 0.8559 | 0.847 | 0.78 | 0.757 | 0.6833 | 0.6565 | 0.63575
100 µM, coculture fibroblast: HPFa | 0.915 | 0.861 | 0.8033 | 0.7377 | 0.689 | 0.6833 | 0.61 | 0.591 | 0.518
100 µM, coculture fibroblast: HUF | 0.925 | 0.837 | 0.79 | 0.715 | 0.644 | 0.599 | 0.548 | 0.516 | 0.488
100 µM, coculture fibroblast: Hs5 | 0.924 | 0.924 | 0.8713 | 0.842 | 0.745 | 0.677 | 0.62 | 0.577 | 0.616
100 µM, coculture fibroblast: Hs27A | 0.827 | 0.7462 | 0.693 | 0.663 | 0.59 | 0.565 | 0.53 | 0.505 | 0.443
100 µM, coculture fibroblast: Hs343T | 0.905 | 0.979 | 0.917 | 0.874 | 0.778 | 0.728 | 0.644 | 0.597 | 0.563
100 µM, coculture fibroblast: WS1 | 0.8858 | 0.796 | 0.743 | 0.662 | 0.605 | 0.554 | 0.483 | 0.418 | 0.394

The reference is the same well before dosing, and untreated signal decays as well.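 Fibroblast labels denote human fibroblasts, mainly primary ones from uterus (C12385, HUF), lung (H6013), bone (Hs27A), adrenal (HADF) and skin (WS1), plus mammary HMF and breast cancer-associated Hs343T. Cancer cells are basal-like or mesenchymal-like triple-negative breast cancer lines. A hit is a response shift exceeding 3x replicate standard deviation. The tissue of the other fibroblasts is not given here.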
